Data published in the supplement of paper PMC10849652.
The list shows a part of the results.

By UniProt entry, the sequences of proteins in these tests, tags left out. Where a name states a change or a piece, a line headed by the entry shows the natural chain unless it says otherwise.
UniProt P08574: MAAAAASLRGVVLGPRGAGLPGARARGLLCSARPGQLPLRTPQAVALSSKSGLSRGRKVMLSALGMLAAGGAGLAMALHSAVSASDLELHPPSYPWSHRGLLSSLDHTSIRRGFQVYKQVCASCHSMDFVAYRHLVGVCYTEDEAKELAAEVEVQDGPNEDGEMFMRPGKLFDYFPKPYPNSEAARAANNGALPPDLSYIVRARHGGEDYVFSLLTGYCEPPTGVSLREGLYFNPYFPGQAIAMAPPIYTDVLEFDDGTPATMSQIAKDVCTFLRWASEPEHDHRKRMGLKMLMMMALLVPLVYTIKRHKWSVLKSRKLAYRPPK
UniProt Q13618, whole entry, looked up: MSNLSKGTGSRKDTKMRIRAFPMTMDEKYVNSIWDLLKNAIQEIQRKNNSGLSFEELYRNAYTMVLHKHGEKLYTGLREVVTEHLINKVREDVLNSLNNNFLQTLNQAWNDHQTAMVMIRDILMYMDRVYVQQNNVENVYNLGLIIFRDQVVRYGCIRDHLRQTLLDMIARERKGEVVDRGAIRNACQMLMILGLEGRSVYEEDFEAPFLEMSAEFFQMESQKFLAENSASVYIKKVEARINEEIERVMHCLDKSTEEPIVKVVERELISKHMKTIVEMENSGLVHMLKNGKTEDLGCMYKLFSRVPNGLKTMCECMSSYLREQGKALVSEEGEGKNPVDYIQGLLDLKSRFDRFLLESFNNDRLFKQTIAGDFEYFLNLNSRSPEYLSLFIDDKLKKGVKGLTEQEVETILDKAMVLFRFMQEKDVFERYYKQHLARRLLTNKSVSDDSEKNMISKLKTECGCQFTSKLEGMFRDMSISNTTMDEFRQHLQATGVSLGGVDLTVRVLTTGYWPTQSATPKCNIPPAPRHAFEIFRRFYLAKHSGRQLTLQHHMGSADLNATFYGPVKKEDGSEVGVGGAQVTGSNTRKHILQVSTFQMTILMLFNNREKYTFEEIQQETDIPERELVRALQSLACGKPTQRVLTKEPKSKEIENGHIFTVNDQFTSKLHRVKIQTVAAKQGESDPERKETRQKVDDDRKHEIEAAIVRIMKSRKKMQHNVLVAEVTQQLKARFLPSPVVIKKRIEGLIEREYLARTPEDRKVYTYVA
UniProt Q9NTM9: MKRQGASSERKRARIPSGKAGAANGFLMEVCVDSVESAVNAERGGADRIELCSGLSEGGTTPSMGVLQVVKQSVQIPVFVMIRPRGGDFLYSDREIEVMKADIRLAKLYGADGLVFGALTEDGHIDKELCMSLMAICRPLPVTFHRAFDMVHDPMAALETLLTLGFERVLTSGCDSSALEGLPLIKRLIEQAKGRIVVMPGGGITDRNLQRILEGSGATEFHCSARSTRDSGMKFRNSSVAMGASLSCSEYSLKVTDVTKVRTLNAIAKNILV
UniProt Q96C57: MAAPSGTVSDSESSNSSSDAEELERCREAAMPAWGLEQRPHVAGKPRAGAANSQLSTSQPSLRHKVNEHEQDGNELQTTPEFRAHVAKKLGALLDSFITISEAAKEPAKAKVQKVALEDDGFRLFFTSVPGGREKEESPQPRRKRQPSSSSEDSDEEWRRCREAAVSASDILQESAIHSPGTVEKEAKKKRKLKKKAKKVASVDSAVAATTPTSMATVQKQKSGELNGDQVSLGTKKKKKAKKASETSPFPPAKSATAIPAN
UniProt P51397: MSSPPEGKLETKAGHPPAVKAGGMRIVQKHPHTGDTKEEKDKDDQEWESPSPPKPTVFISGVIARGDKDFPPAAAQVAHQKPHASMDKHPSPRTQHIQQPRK
UniProt P99999: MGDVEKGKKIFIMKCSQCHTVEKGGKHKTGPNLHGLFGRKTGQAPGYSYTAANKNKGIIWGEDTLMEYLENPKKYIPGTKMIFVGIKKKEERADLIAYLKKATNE
UniProt Q5JQC4: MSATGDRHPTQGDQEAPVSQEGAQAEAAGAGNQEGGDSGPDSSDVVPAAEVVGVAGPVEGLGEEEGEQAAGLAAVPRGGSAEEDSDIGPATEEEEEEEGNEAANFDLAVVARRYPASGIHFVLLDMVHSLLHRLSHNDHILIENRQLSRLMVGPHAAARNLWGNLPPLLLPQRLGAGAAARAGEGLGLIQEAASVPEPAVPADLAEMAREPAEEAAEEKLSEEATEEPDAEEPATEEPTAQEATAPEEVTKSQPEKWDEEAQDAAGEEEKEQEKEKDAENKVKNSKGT
UniProt Q13617, whole entry, looked up: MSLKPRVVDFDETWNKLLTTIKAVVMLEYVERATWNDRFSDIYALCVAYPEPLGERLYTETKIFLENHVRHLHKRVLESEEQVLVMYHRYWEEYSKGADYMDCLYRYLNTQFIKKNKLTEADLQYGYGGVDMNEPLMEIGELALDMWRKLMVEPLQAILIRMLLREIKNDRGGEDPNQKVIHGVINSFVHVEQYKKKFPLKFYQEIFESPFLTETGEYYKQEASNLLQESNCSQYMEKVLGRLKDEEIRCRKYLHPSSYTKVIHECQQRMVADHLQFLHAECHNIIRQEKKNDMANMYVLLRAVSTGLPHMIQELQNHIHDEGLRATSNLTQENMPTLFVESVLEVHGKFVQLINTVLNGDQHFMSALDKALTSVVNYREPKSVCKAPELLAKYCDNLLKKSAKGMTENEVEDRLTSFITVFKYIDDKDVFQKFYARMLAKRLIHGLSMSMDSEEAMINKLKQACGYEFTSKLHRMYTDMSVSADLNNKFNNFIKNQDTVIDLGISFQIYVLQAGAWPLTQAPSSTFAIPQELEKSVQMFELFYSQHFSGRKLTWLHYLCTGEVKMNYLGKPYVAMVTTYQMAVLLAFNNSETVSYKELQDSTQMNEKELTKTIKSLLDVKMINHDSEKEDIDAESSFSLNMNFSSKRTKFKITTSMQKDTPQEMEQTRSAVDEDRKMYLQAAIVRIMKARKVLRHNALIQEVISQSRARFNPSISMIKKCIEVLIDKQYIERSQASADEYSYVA
UniProt Q93034, whole entry, looked up: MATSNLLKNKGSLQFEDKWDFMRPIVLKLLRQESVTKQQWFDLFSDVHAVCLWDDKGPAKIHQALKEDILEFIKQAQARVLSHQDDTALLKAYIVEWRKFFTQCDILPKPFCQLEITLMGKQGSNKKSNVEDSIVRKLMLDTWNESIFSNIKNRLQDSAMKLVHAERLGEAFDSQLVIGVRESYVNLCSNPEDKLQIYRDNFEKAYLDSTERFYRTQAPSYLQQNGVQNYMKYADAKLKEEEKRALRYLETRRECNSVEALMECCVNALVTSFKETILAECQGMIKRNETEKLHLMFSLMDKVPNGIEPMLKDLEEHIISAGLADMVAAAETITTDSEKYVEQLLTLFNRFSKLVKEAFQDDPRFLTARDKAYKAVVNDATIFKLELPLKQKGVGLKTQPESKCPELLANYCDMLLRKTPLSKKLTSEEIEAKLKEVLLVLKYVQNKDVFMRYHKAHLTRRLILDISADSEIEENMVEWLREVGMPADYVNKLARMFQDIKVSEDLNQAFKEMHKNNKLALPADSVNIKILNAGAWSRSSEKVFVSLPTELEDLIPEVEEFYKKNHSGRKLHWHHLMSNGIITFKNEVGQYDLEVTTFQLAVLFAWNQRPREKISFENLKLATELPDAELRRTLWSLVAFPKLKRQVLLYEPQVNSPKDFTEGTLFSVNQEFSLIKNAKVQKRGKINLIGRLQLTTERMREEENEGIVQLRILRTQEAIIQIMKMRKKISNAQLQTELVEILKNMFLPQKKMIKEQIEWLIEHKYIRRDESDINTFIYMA
UniProt P32929, whole entry, looked up: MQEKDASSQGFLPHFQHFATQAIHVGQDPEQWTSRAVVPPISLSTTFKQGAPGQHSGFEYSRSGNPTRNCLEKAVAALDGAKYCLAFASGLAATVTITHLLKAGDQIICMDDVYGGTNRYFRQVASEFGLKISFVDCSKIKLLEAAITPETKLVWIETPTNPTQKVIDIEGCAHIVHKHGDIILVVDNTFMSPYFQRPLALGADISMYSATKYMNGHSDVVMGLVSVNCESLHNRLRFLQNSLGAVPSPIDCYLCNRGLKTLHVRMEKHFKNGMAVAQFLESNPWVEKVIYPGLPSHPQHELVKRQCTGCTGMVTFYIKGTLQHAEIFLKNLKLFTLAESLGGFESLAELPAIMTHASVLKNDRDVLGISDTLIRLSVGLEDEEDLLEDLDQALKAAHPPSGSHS
UniProt Q13616, whole entry, looked up: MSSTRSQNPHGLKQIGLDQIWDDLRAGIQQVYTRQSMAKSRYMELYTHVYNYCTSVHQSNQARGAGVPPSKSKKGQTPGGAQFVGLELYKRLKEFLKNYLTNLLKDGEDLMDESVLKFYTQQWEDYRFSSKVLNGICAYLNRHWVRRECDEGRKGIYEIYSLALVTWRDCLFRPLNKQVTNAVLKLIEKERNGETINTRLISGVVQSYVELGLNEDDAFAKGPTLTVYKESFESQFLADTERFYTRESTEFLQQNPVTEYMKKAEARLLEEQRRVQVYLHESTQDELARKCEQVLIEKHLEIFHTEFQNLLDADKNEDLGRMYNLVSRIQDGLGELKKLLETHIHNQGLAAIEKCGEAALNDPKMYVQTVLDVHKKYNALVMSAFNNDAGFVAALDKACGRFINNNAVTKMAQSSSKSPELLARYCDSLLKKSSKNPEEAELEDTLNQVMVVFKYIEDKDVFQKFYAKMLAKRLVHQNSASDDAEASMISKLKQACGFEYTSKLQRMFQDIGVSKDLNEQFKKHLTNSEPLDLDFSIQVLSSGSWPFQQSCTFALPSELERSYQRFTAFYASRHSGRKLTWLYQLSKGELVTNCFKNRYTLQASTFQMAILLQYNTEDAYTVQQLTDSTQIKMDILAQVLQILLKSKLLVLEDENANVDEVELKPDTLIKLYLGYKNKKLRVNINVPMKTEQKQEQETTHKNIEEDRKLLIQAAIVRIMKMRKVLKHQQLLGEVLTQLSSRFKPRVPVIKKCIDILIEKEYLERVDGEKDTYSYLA
UniProt Q9NPI6: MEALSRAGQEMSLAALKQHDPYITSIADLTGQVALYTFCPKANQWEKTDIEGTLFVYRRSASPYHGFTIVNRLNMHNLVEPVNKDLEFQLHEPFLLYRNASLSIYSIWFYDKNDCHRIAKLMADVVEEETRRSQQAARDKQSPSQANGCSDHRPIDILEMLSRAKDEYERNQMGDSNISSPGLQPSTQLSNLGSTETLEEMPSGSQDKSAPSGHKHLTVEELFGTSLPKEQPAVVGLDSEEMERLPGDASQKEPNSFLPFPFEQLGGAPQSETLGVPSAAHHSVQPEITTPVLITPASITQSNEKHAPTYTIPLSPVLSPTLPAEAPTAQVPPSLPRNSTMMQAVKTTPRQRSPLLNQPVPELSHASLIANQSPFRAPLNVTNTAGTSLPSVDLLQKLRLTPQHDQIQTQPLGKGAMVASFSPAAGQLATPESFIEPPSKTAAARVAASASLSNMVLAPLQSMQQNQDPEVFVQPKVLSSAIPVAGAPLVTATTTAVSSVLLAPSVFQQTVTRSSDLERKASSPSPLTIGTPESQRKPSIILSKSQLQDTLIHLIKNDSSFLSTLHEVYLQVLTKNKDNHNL
UniProt Q6UW02: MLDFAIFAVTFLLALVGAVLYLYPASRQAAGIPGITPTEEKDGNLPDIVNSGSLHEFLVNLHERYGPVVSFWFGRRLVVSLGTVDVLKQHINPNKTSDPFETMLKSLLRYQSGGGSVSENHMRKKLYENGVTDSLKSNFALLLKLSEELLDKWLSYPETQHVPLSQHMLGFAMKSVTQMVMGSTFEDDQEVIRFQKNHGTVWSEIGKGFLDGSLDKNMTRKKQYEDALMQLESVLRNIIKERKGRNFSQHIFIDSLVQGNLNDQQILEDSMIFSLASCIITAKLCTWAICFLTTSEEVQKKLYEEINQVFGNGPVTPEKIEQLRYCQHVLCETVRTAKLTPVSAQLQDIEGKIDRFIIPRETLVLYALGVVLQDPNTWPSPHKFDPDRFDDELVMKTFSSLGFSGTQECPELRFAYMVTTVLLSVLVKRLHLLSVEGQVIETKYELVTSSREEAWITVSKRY
UniProt P14868: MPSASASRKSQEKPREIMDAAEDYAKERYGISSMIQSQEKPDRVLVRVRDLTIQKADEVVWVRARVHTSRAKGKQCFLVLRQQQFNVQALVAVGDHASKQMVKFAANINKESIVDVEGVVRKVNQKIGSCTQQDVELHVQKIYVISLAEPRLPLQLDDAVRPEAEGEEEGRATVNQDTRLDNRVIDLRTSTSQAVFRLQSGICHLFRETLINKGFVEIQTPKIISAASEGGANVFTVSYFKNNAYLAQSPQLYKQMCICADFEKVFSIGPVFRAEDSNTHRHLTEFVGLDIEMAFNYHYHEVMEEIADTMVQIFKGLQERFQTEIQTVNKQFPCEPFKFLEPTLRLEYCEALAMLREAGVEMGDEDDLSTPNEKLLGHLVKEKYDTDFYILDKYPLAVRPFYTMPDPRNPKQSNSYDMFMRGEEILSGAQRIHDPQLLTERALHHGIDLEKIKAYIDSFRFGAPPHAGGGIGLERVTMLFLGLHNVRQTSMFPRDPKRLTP

Experiments:
Test in all cases: log2 fold change, soluble protein after heating vs DMSO (PISA); higher = thermal stabilisation; K562 cells, 10 uM, 30 min; active = over 0.2 and 3.5 SD of the protein, either way, in both replicates (recomputed)
saracatinib = compound: CN1CCN(CCOc2cc(OC3CCOCC3)c3c(Nc4c(Cl)ccc5c4OCO5)ncnc3c2)CC1 [saracatinib]
Summary of the method: (§1)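 K562 cells at 2×10^6 cells/mL were exposed to 10 μM compound for 30 min, then aliquots were heated for 3 min across 48°C-58°C, pooled, and extracted in PBS containing 0.5% NP-40 at 4°C. The supernatant after 21,000xg for 90 min was taken as soluble protein and measured by TMTpro 16plex LC-MS/MS with channel sums equalised. Thermal stability is reported relative to control samples, with values from duplicates. Fold changes are given on a log2 scale.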

sotrastaurin = compound: CN1CCN(c2nc(C3=C(c4c[nH]c5ccccc45)C(=O)NC3=O)c3ccccc3n2)CC1 [sotrastaurin]
Summary of the method: as §1

alvocidib = compound: CN1CC[C@H](c2c(O)cc(O)c3c(=O)cc(-c4ccccc4Cl)oc23)[C@H](O)C1 [alvocidib]
Summary of the method: as §1

Tubastatin A = compound: CN1CCc2c(c3ccccc3n2Cc2ccc(C(=O)NO)cc2)C1 [Tubastatin A]
Summary of the method: as §1

[1] = compound: CNC(=O)C1=CC=CC=C1NC2=NC(=NC=C2Cl)NC3=C(C=C(C=C3)N4CCOCC4)OC
Summary of the method: as §1

defactinib = compound: CNC(=O)c1ccc(Nc2ncc(C(F)(F)F)c(NCc3nccnc3N(C)S(C)(=O)=O)n2)cc1 [defactinib]
Summary of the method: as §1

rucaparib = compound: CNCc1ccc(-c2[nH]c3cc(F)cc4c3c2CCNC4=O)cc1 [rucaparib]
Summary of the method: as §1

[2] = compound: CNc1nc(-c2ccc3c(N)n[nH]c3c2)cc(N2C[C@@H](C(=O)NC3CCCCC3)CC[C@H]2C)n1
Summary of the method: as §1

encorafenib = compound: COC(=O)N[C@@H](C)CNc1nccc(-c2cn(C(C)C)nc2-c2cc(Cl)cc(NS(C)(=O)=O)c2F)n1 [encorafenib]
Summary of the method: as §1

[3] = compound: COC(=O)[C@H](CCSC)NC(=O)C1=C(C=C(C=C1)NC[C@H](CS)N)C2=CC=CC=C2
Summary of the method: as §1

[4] = compound: COC1=CC=C(C=C1)CN2C=CC3=C2C=C(C=C3)C(=O)NO
Summary of the method: as §1

filanesib = compound: CON(C)C(=O)N1N=C(c2cc(F)ccc2F)S[C@@]1(CCCN)c1ccccc1 [filanesib]
Summary of the method: as §1

zotarolimus = compound: CO[C@H]1C[C@@H]2CC[C@@H](C)[C@@](O)(O2)C(=O)C(=O)N2CCCC[C@H]2C(=O)O[C@H]([C@H](C)C[C@@H]2CC[C@H](n3cnnn3)[C@H](OC)C2)CC(=O)[C@H](C)/C=C(\C)[C@@H](O)[C@@H](OC)C(=O)[C@H](C)C[C@H](C)/C=C/C=C/C=C/1C [zotarolimus]
Summary of the method: as §1

idasanutlin = compound: COc1cc(C(=O)O)ccc1NC(=O)[C@@H]1N[C@@H](CC(C)(C)C)[C@](C#N)(c2ccc(Cl)cc2F)[C@H]1c1cccc(Cl)c1F [idasanutlin]
Summary of the method: as §1

alisertib = compound: COc1cc(Nc2ncc3c(n2)-c2ccc(Cl)cc2C(c2c(F)cccc2OC)=NC3)ccc1C(=O)O [alisertib]
Summary of the method: as §1

[5] = compound: COc1cc2nc(-c3cc(F)ccc3O)nc(N[C@@H]3CNC[C@H]3C(C)(C)O)c2cc1OC
Summary of the method: as §1

gefitinib = compound: COc1cc2ncnc(Nc3ccc(F)c(Cl)c3)c2cc1OCCCN1CCOCC1 [gefitinib]
Summary of the method: as §1

[6] = compound: COc1cccc2cc(-c3nc([C@H]4CC[C@H](C(=O)O)CC4)n4ncnc(N)c34)[nH]c12
Summary of the method: as §1

lapatinib = compound: CS(=O)(=O)CCNCc1ccc(-c2ccc3ncnc(Nc4ccc(OCc5cccc(F)c5)c(Cl)c4)c3c2)o1 [lapatinib]
Summary of the method: as §1

pictilisib = compound: CS(=O)(=O)N1CCN(Cc2cc3nc(-c4cccc5[nH]ncc45)nc(N4CCOCC4)c3s2)CC1 [pictilisib]
Summary of the method: as §1

Measured: log2 fold change

CYC1 (UniProt P08574)
inactive: saracatinib 0 | sotrastaurin 0.015 | alvocidib -0.021 | Tubastatin A -0.022 | [1] -0.012 | defactinib -0.016 | rucaparib -0.032 | [2] -0.009 | encorafenib 0.003 | [3] 0.024 | [4] -0.037 | filanesib -0.03 | zotarolimus -0.001 | idasanutlin -0.015 | alisertib -0.038 | [5] 0.013 | gefitinib -0.056 | [6] 0.009 | lapatinib -0.061 | pictilisib 0.08

CUL3 (UniProt Q13618)
inactive: saracatinib 0.013 | sotrastaurin -0.005 | alvocidib -0.043 | Tubastatin A -0.05 | [1] -0.011 | defactinib -0.052 | rucaparib -0.025 | [2] -0.005 | encorafenib 0.007 | [3] 0.015 | [4] -0.001 | filanesib -0.072 | zotarolimus 0.03 | idasanutlin -0.073 | alisertib -0.006 | [5] 0.002 | gefitinib 0 | [6] 0.012 | lapatinib 0.008 | pictilisib -0.005

CUTC (UniProt Q9NTM9)
inactive: saracatinib 0.017 | sotrastaurin -0.032 | alvocidib -0.038 | Tubastatin A -0.011 | [1] -0.011 | defactinib 0.003 | rucaparib -0.03 | [2] -0.011 | encorafenib -0.005 | [3] 0.032 | [4] 0.037 | filanesib -0.022 | zotarolimus -0.043 | idasanutlin 0.081 | alisertib 0.025 | [5] 0.027 | gefitinib 0.035 | [6] 0.076 | lapatinib -0.071 | pictilisib 0.081

2 consecutive records from above:
CYC1 (UniProt P08574)
inactive: saracatinib 0 | sotrastaurin 0.015 | alvocidib -0.021 | Tubastatin A -0.022 | [1] -0.012 | defactinib -0.016 | rucaparib -0.032 | [2] -0.009 | encorafenib 0.003 | [3] 0.024 | [4] -0.037 | filanesib -0.03 | zotarolimus -0.001 | idasanutlin -0.015 | alisertib -0.038 | [5] 0.013 | gefitinib -0.056 | [6] 0.009 | lapatinib -0.061 | pictilisib 0.08

CUL3 (UniProt Q13618)
inactive: saracatinib 0.013 | sotrastaurin -0.005 | alvocidib -0.043 | Tubastatin A -0.05 | [1] -0.011 | defactinib -0.052 | rucaparib -0.025 | [2] -0.005 | encorafenib 0.007 | [3] 0.015 | [4] -0.001 | filanesib -0.072 | zotarolimus 0.03 | idasanutlin -0.073 | alisertib -0.006 | [5] 0.002 | gefitinib 0 | [6] 0.012 | lapatinib 0.008 | pictilisib -0.005

(listing goes on)

CUSTOS (UniProt Q96C57)
inactive: saracatinib -0.02 | sotrastaurin 0.013 | alvocidib -0.008 | Tubastatin A 0.011 | [1] -0.024 | defactinib -0.016 | rucaparib 0.02 | [2] -0.013 | encorafenib -0.013 | [3] -0.025 | [4] -0.049 | filanesib -0.031 | zotarolimus -0.019 | idasanutlin 0.015 | alisertib -0.064 | [5] -0.003 | gefitinib -0.038 | [6] 0.022 | lapatinib 0.005 | pictilisib 0

DAP (UniProt P51397)
inactive: saracatinib 0.039 | sotrastaurin 0.023 | alvocidib -0.002 | Tubastatin A -0.001 | [1] -0.024 | defactinib -0.014 | rucaparib 0.016 | [2] -0.013 | encorafenib 0.022 | [3] 0.023 | [4] 0.192 | filanesib 0.025 | zotarolimus -0.021 | idasanutlin 0.042 | alisertib -0.047 | [5] 0 | gefitinib 0.027 | [6] 0.093 | lapatinib -0.058 | pictilisib -0.008

CYCS (UniProt P99999)
inactive: saracatinib 0.016 | sotrastaurin 0.049 | alvocidib 0.002 | Tubastatin A -0.053 | [1] -0.021 | defactinib -0.019 | rucaparib -0.026 | [2] -0.029 | encorafenib -0.031 | [3] 0.019 | [4] -0.01 | filanesib -0.045 | zotarolimus -0.011 | idasanutlin 0.009 | alisertib -0.051 | [5] 0.011 | gefitinib 0.092 | [6] 0.065 | lapatinib -0.046 | pictilisib 0.024

DAZAP1 (UniProt Q96EP5)
inactive: saracatinib 0.049 | sotrastaurin 0.061 | alvocidib 0.116 | Tubastatin A -0.048 | [1] 0.131 | defactinib 0.093 | rucaparib 0.105 | [2] -0.118 | encorafenib -0.058 | [3] 0.012 | [4] 0.038 | filanesib 0.053 | zotarolimus -0.038 | idasanutlin -0.011 | alisertib -0.203 | [5] 0.081 | gefitinib -0.029 | [6] -0.011 | lapatinib 0.019 | pictilisib -0.107

CT47A1 (UniProt Q5JQC4)
inactive: saracatinib -0.001 | sotrastaurin -0.017 | alvocidib 0.039 | Tubastatin A -0.037 | [1] -0.037 | defactinib 0.007 | rucaparib 0.036 | [2] -0.041 | encorafenib 0.001 | [3] 0.023 | [4] 0.012 | filanesib -0.022 | zotarolimus 0.122 | idasanutlin -0.005 | alisertib -0.148 | [5] -0.042 | gefitinib 0.033 | [6] 0.012 | lapatinib -0.017 | pictilisib -0.08

CUL2 isoform 2 (UniProt Q13617)
inactive: saracatinib -0.016 | sotrastaurin -0.009 | alvocidib -0.097 | Tubastatin A -0.009 | [1] -0.008 | defactinib -0.019 | rucaparib -0.011 | [2] -0.022 | encorafenib 0 | [3] -0.01 | [4] 0.087 | filanesib -0.091 | zotarolimus 0.032 | idasanutlin -0.085 | alisertib -0.02 | [5] 0.032 | gefitinib 0.01 | [6] 0.036 | lapatinib -0.008 | pictilisib 0.016

CUL5 (UniProt Q93034)
inactive: saracatinib 0.04 | sotrastaurin 0.025 | alvocidib -0.029 | Tubastatin A -0.033 | [1] -0.02 | defactinib -0.028 | rucaparib -0.044 | [2] -0.035 | encorafenib -0.003 | [3] -0.011 | [4] -0.014 | filanesib -0.069 | zotarolimus -0.014 | idasanutlin -0.069 | alisertib -0.021 | [5] 0.024 | gefitinib 0.01 | [6] 0.056 | lapatinib -0.01 | pictilisib 0.043

CYB5R2 (UniProt Q6BCY4)
inactive: saracatinib 0.041 | sotrastaurin 0.062 | alvocidib 0.015 | Tubastatin A -0.018 | [1] -0.061 | defactinib -0.035 | rucaparib -0.035 | [2] -0.086 | encorafenib -0.018 | [3] -0.01 | [4] 0.005 | filanesib 0 | zotarolimus -0.043 | idasanutlin 0.006 | alisertib -0.104 | [5] 0.083 | gefitinib -0.002 | [6] 0.035 | lapatinib 0.037 | pictilisib 0.031

CTH (UniProt P32929)
inactive: saracatinib 0.079 | sotrastaurin 0.021 | alvocidib -0.024 | Tubastatin A -0.02 | [1] -0.028 | defactinib -0.02 | rucaparib -0.033 | [2] -0.045 | encorafenib 0.034 | [3] -0.004 | [4] 0.055 | filanesib -0.025 | zotarolimus -0.014 | idasanutlin -0.082 | alisertib -0.046 | [5] -0.014 | gefitinib -0.04 | [6] 0.024 | lapatinib 0.018 | pictilisib 0.001

CUL1 (UniProt Q13616)
inactive: saracatinib 0.041 | sotrastaurin 0.038 | alvocidib 0.019 | Tubastatin A -0.024 | [1] 0.026 | defactinib 0.006 | rucaparib -0.033 | [2] -0.048 | encorafenib 0.001 | [3] 0.008 | [4] 0.087 | filanesib -0.032 | zotarolimus 0.027 | idasanutlin -0.032 | alisertib -0.049 | [5] -0.029 | gefitinib -0.006 | [6] 0.037 | lapatinib 0.019 | pictilisib 0.021

DCP1A (UniProt Q9NPI6)
inactive: saracatinib 0.007 | sotrastaurin 0.004 | alvocidib -0.003 | Tubastatin A 0.172 | [1] -0.058 | defactinib -0.19 | rucaparib 0.234 | [2] -0.032 | encorafenib 0.179 | [3] -0.252 | [4] -0.04 | filanesib 0.176 | zotarolimus -0.132 | idasanutlin 0.075 | alisertib 0.061 | [5] 0.162 | gefitinib -0.023 | [6] -0.048 | lapatinib 0 | pictilisib -0.088

CYP20A1 (UniProt Q6UW02)
inactive: saracatinib 0.017 | sotrastaurin 0.042 | alvocidib -0.034 | Tubastatin A -0.016 | [1] -0.008 | defactinib -0.029 | rucaparib -0.174 | [2] -0.04 | encorafenib 0.011 | [3] 0.019 | [4] -0.041 | filanesib -0.069 | zotarolimus 0.013 | idasanutlin -0.109 | alisertib -0.045 | [5] 0.002 | gefitinib 0.008 | [6] 0.056 | lapatinib -0.013 | pictilisib -0.009

DARS (UniProt P14868)
inactive: saracatinib 0.034 | sotrastaurin 0.036 | alvocidib 0.026 | Tubastatin A -0.021 | [1] -0.026 | defactinib 0.047 | rucaparib 0.069 | [2] -0.019 | encorafenib 0.009 | [3] 0.018 | [4] -0.072 | filanesib 0.041 | zotarolimus -0.026 | idasanutlin 0.033 | alisertib -0.067 | [5] 0.006 | gefitinib -0.007 | [6] 0.001 | lapatinib -0.013 | pictilisib 0.002
